Results as given in patent US9034873B2, “Pyridazine and pyrrole compounds, processes for obtaining them and uses” (Centre National de la Recherche Scientifique (C.N.R.S.), priority 2006, dated 2015).
Read-outs that look alike come from different tables or passages of the source.

Tested on: Sub7 (liver)
Assay: IC50 of the referent molecules on Sub7 (liver) cells
Format: cell-based

## CC[C@H](CO)Nc1nc(NCc2ccccc2)c2ncn(C(C)C)c2n1 [Roscovitine]
24 h, read-out: IC50 μM Sub7 (liver) 24 h
  IC50: 10 µM
48 h, read-out: IC50 μM Sub7 (liver) 48 h
  IC50: 4 µM
